From article PMC11641346
These are yes or no findings as the source states them, for the method shown. Binding can be weak; no strength is given.

Molecular target: TaBZR2.1 (BD-TaBZR2.1 bait) (wheat (Triticum aestivum))
Assay: two-hybrid; Matchmaker Gold system; pGBKT7-TaBZR2.1 bait and pGADT7-AGO4 prey co-transformed into Y2H-gold; plated on DDO (SD/-Leu/-Trp) and QDO (SD/-Ade/-His/-Leu/-Trp) with ABA (125 ng/mL)

## Argonaute 4 (AD-AGO4 prey) (from UniProt A0A1D5VIV1)
  binding: binds
